From paper PMC7749390, “Neuroprotective activity of Ulmus pumila L. in Alzheimer's disease in rats; role of neurotrophic factors” (Heliyon, 2020)
Where a name gives a salt, the structure may show the parent alone.

Test system: oxidative stress status in AlCl3-induced AD rats
Assay: Antioxidant parameters (MDA, GSH, CAT, SOD) in brain homogenate and serum of AlCl3-induced AD rats
Format: in vivo
Details: Mean ± SEM, N = 6

**Q.** What does the source list for `COc1cc2c(cc1OC)C(=O)C(CC1CCN(Cc3ccccc3)CC1)C2` (stereo not drawn) [REF. DRUG, Donepezil tartrate]?
**A.** SERUM CAT: 2.18 ± 0.04^@ U/mg protein; SERUM GSH: 0.46 ± 0.021^@ nmol/mg protein; SERUM MDA: 1.12 ± 0.03^@ nmol/mg protein
